Test results reported in ChEMBL document CHEMBL2417536, “New pyridazine-fluorine derivatives: synthesis, chemistry and biological activity. Part II” (2013).

System: Candida albicans
Assay: Antifungal activity against Candida albicans ATCC 10231 assessed as growth inhibition at 100 ug/disc after 48 hrs by disc diffusion assay
Type: functional, organism-based

**Q.** With NYSTATIN as the sequence, how does the inhibition zone (IZ) read?
**A.** 29 mm
